Results taken from PubChem BioAssay AID485314 (National Center for Advancing Translational Sciences (NCATS), 2010).
Values joined by “and” are separate entries in the source; they are usually repeats but may differ in a detail not shown here. Equal values may be shown once. The campaign covered roughly 340,000 compounds. About 4,500 (1.3%) were called active. The shares of active, inactive and inconclusive entries below differ from those in the screen. Calls come from the whole dose curve; as a rule, active = well fitted inhibition curve with a large enough effect; inconclusive = small, poorly fitted or top-dose-only effect, or another doubt; inactive = no such curve, though single readings can be large or run the other way. Potencies beside an inconclusive call are fits to weak or partial responses and may not hold up.

biological target: DNA polymerase beta (Homo sapiens) (UniProt P06746); experiment: qHTS Assay for Inhibitors of DNA Polymerase Beta; conditions: Pol beta primer extension/strand displacement, fluorescence kinetic; activity change, negative = inhibition: at 114 µM (top of the series)
Procedure, shortened: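 Curves were derived by four-parameter Hill fits of normalized qHTS data. The kinetic fluorescent primer-extension read was taken at 0 and 10 min after 50 nM substrate, following a 15 min room-temperature preincubation of 10 nM enzyme with compounds.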
% is set by controls: 0 for no effect and ±100 for the full control effect; potency is the fitted concentration of half-maximal effect.

Structure (SMILES)	Potency	activity change, negative = inhibition
OCCn1c(-c2ccc(F)cc2)csc1=Nc1ccccc1	inconclusive: 89.1 µM [inhibitor, single point]	–
O=C1C2C3C=CC(CC3)C2C(=O)N1c1ccccc1 (stereo unspecified)	inconclusive: 79.4 µM [inhibitor, single point]	–
Oc1ccc(/C=N/N2CCOCC2)c(O)c1O	inconclusive: 10 µM [inhibitor, full curve]	–
Cc1ccc(OCC(=O)Nc2ccc(CN3CCOCC3)cc2)cc1	inconclusive: 39.8 µM [inhibitor, single point]	–
O=C(CCC(=O)N1CC2CCCN2c2ccccc21)NCc1ccccc1F (stereo unspecified)	–	inactive: -1.92%
CN(C)CCCN1c2ccccc2Sc2ccc(Cl)cc21	inconclusive: 89.1 µM [inhibitor, single point]	–
CCOc1ccccc1Oc1nc(-c2ccccc2O)nc2ccccc12	inconclusive: 0.141 µM [inhibitor, full curve, poor fit]	–
Fc1ccc(Br)cc1SCCc1ccncc1	inconclusive: 89.1 µM [inhibitor, single point]	–
CCOC(=O)COc1nc(OC)nc(N2CCOCC2)n1	inconclusive: 100 µM [inhibitor, partial curve]	–
COc1ccc(-n2c3c(cc(-c4nc(-c5ccc(C)cc5)cs4)c2=O)C(=O)CC(C)(C)C3)cc1	inconclusive: 100 µM [inhibitor, single point]	–
CCOCCc1nnc(NC(=O)C2CC(=O)N(CCc3ccc(F)cc3)C2)s1 (stereo unspecified)	inconclusive: 14.1 µM [inhibitor, partial curve, poor fit]	–
CCn1c(SCc2nc3ccccc3[nH]2)nnc1-c1cnccn1	inconclusive: 89.1 µM [inhibitor, single point]	–
Cc1ccc(/C=C/C(=O)NCCc2ccccc2)o1	–	inactive: -28.9%
O=c1cc(O)c2c(=O)n(C3CCCCC3)c3ccccc3c2o1	active: 44.7 µM	–
Cc1cccc(N2CCN(C(=S)Nc3ccc4nc(N5CCN(C)CC5)cc(C)c4c3)CC2C)c1 (stereo unspecified)	inconclusive: 100 µM [inhibitor, single point]	–
COc1ccc(N2C(=O)[C@@H]3[C@H](C2=O)[C@H](C(=O)c2ccc(OC(C)=O)cc2)N2N=CC=C[C@@H]32)cc1	inconclusive: 89.1 µM [inhibitor, single point]	–
COc1cc(/C=C2\Oc3cc(O)ccc3C2=O)ccc1O	inconclusive: 79.4 µM [inhibitor, single point]	–
O=C(NCc1ccco1)c1ccc(Cn2c(SCc3ccc(F)cc3)nc3cccnc32)cc1	–	inactive: -15.5%
CC(C)(C)OC(=O)NCCc1nnc(SCC(=O)Nc2cccc(Cl)c2)o1	–	inactive: -5.78%
Cc1ccc(-c2csc3ncnc(SCc4ccc(C(=O)O)cc4)c23)cc1	inconclusive: 89.1 µM [inhibitor, single point]	–
FC(F)(F)c1cccc(-c2nc3nc(Cl)c(Cl)nc3[nH]2)c1	–	inconclusive: -30.5% [inhibitor]
CCOc1ccc(C(=O)NCc2nc3cccnc3n2Cc2ccc(F)cc2)cc1OCC	inconclusive: 5.01 µM [inhibitor, full curve, poor fit]	–
O=c1[nH]c(=O)n(Cc2ccccc2)c2nc(-c3ccc(C(F)(F)F)cc3)n(CCO)c12	inconclusive: 4.47 µM [inhibitor, single point]	–
Cc1ccc(S(=O)(=O)c2cc3c(=O)n4cccc(C)c4nc3n(Cc3ccco3)c2=N)cc1C	inconclusive: 39.8 µM [inhibitor, partial curve, poor fit]	–

Structure (SMILES)	Potency	activity change, negative = inhibition
Cc1cc(=O)[nH]c2nnc(SCC(=O)Nc3ccc(OC(F)(F)F)cc3)n12	–	inactive: 16.4%
COc1ccc(CCNC(=O)c2c(O)c3cccc4c3n(c2=O)CC4)cc1	inconclusive: 63.1 µM [inhibitor, single point]	–
CCOc1ccc(NC(=O)NC2(C(=O)NCc3ccco3)CCCCC2)cc1	inconclusive: 89.1 µM [inhibitor, single point]	–
COc1ccc(NC(=O)Cn2c(=O)c(-c3cc(C)ccc3NC(C)=O)nc3ccccc32)c(OC)c1	inconclusive: 89.1 µM [inhibitor, single point]	–
COc1ccc(-n2ncc3c(NC(C)(C)CO)ncnc32)cc1	–	inactive: 2.43%
COc1ccc(/C=N/NC(=O)c2cc(Br)ccc2O)cc1Cn1cc(Cl)cn1	inconclusive: 100 µM [inhibitor, single point]	–
N=c1c(C(=O)NCCc2ccccc2)cc2c(=O)n3ccccc3nc2n1CCCN1CCOCC1	inconclusive: 89.1 µM [inhibitor, single point]	–
COC(=O)/C(=C/Nc1ccccc1)[N+](=O)[O-]	–	inactive: 0.262%
C/C(=C\C=C(C#N)C#N)c1cc(C#N)c(N)o1	active: 8.91 µM	–
NCc1nc2cccnc2n1Cc1ccccc1Cl	–	inactive: 7.87%
CCN1/C(=C/C=C/C=C/c2sc3ccccc3[n+]2CC)Sc2ccccc21	active: 15.8 µM	–
Cc1ccc(CNC(=O)CN2C(=O)COc3ccc(S(=O)(=O)N4CCC(C)CC4)cc32)o1	–	inactive: 16.6%
COc1ccc(NC(=O)CSc2nc3c([nH]c4ccccc43)c(=O)n2-c2ccccc2)c(OC)c1	–	inactive: -9.63%
O=C(NNC(=O)c1ccc2[nH]c(=O)c(=O)[nH]c2c1)c1cccc(Br)c1	inconclusive: 89.1 µM [inhibitor, single point]	–
COc1cc(C(=O)NCc2ccncc2)cc(Br)c1OCc1ccccc1	–	inconclusive: -30.7% [inhibitor]
COc1ccc(CCNC(=O)c2cc3c(=O)n4cccc(C)c4nc3n(Cc3ccncc3)c2=N)cc1	inconclusive: 89.1 µM [inhibitor, single point]	–
Cc1ccc(C(=O)Oc2coc(CSc3nnc(NC(=O)c4cccs4)s3)cc2=O)cc1	active: 25.1 µM	–
Cc1ccccc1CS(=O)(=O)CCC(=O)NCCCN1CCN(c2ccccc2F)CC1	–	inactive: 25.9%
O=C(N/N=C/c1c(O)ccc2ccccc12)c1[nH]ncc1Br	inconclusive: 17.8 µM [inhibitor, full curve, poor fit]	–
COc1ccc(/C=C2/SC(=S)N(CCC(=O)O)C2=O)cc1	–	inactive: 21.9%
Cc1nn2c(=S)[nH]nc2[nH]c1=O	–	inactive: 0.328%
COc1ccc(NC(=O)Cn2nnc(C(=O)NCCc3ccccc3)c2N)cc1	active: 12.6 µM and active: 25.1 µM	–
Cc1cccc(N(CC(O)Cn2c3ccccc3c3ccccc32)S(=O)(=O)c2ccc(F)cc2)c1 (stereo unspecified)	–	inactive: -0.323%
CCC(=O)Nc1nnc(S(=O)(=O)N(C)c2ccccc2)s1	inconclusive: 28.2 µM [inhibitor, single point]	–

Complete entries, looked up by structure.
Cc1nn2c(=S)[nH]nc2[nH]c1=O in the list: activity change, negative = inhibition: inactive: 0.328%
COc1ccc(NC(=O)Cn2c(=O)c(-c3cc(C)ccc3NC(C)=O)nc3ccccc32)c(OC)c1 in the list: Potency: inconclusive: 89.1 µM [inhibitor, single point]
Cc1ccc(CNC(=O)CN2C(=O)COc3ccc(S(=O)(=O)N4CCC(C)CC4)cc32)o1 in the list: activity change, negative = inhibition: inactive: 16.6%
CCOc1ccc(NC(=O)NC2(C(=O)NCc3ccco3)CCCCC2)cc1 in the list: Potency: inconclusive: 89.1 µM [inhibitor, single point]

Further compounds

Structure (SMILES)	Potency	activity change, negative = inhibition
CCOC(=O)c1c(NC(=O)Cn2nc(C(=O)O)c3ccccc3c2=O)sc(CC)c1C	inconclusive: 0.708 µM [inhibitor, full curve, poor fit]	–
COc1ccc(-c2coc3cc(O)ccc3c2=O)cc1O	active: 25.1 µM	–
NC(=O)c1oc2ccccc2c1NC(=O)CCc1ccccc1	inconclusive: 89.1 µM [inhibitor, single point]	–
CCC(C)[C@H](NC(=O)C1CCC(CNC(=O)[C@@H]2CCCN2C(=O)OC(C)(C)C)CC1)C(=O)O (stereo partly specified)	active: 0.224 µM	–
Cc1ccccc1NS(=O)(=O)c1nnc(NC(=O)c2ccccc2F)s1	inconclusive: 89.1 µM [inhibitor, single point]	–
O=S(=O)(NCC(c1cccs1)S(=O)(=O)c1ccccc1)c1ccc(F)cc1 (stereo unspecified)	inconclusive: 89.1 µM [inhibitor, single point]	–
CCCn1c(=S)[nH]c2sc3c(c2c1=O)CCCC3	–	inactive: 10.5%
Cc1ccccc1-c1nn2c(=O)cc(CN3CCN(C(=O)/C=C/c4ccccc4)CC3)nc2s1	inconclusive: 35.5 µM [inhibitor, single point]	–
CC(=O)Nc1nc(C)c(Oc2ccccc2)c(=O)[nH]1	inconclusive: 39.8 µM [inhibitor, single point]	–
O=C(c1ccc2c(c1)OCCO2)N(Cc1cccnc1)c1nc2c(Cl)cccc2s1	–	inactive: -0.909%
N#Cc1ccc(C2=NC(C(F)(F)F)(C(F)(F)F)c3c(n(Cc4ccco4)c(=O)[nH]c3=O)N2)cc1	inconclusive: 28.2 µM [inhibitor, single point]	–
COc1ccc(C2C3=C(Nc4ncnn42)c2ccccc2CCC3)cc1 (stereo unspecified)	–	inactive: 18.9%
O=[N+]([O-])c1ccc(N2CCN(Cc3ccncc3)CC2)cc1	inconclusive: 15.8 µM [inhibitor, single point]	–
COc1ccc(OCCC(=O)NCCN2CCOCC2)cc1	inconclusive: 39.8 µM [inhibitor, single point]	–
Cc1cc(NC(=O)c2cc(-c3ccco3)on2)n(-c2ccccc2)n1	inconclusive: 39.8 µM [inhibitor, partial curve]	–
S=c1[nH]nc(Nc2ccc(Cl)cc2)s1	inconclusive: 6.31 µM [inhibitor, full curve]	–
O=C(Cn1c(=O)oc2cc(S(=O)(=O)NCc3ccccc3)ccc21)NCc1ccco1	inconclusive: 39.8 µM [inhibitor, full curve]	–
Cc1ccc(NC2=CC(c3ccccc3F)N(c3ccc(C)cc3)C2=O)cc1 (stereo unspecified)	–	inactive: -11.9%
O=[N+]([O-])c1ccc(Cc2ccncc2)cc1	inconclusive: 39.8 µM [inhibitor, single point]	–
O=c1c2ccccc2[nH]c2ccc(O)cc12	active: 17.8 µM	–
Cc1cc(N2C(=O)C3C4C=CC(C4)C3C2=O)ccc1NC(=O)c1cccs1 (stereo unspecified)	active: 31.6 µM	–
COc1cc2cc(Oc3ccc4ccc(=O)oc4c3)c(=O)oc2cc1OC(=O)C=C(C)C	active: 14.1 µM	–
CCOC(=O)c1ccc2nc(C(F)(F)F)[nH]c(=O)c2c1	–	inactive: -2.66%
